Test results: publication doi:10.1101/2021.12.22.473884
These are yes or no findings as the source states them, for the method shown. Binding seen in cells or lysates may run through a third protein. Some results given as binding are weak or reduced against the parent protein; the word gives no strength. Sequences can lack the tags named with a protein.

Assays:
Fbxo7 R378G (human) = molecular target: T1, Fbxo7 R378G (human) (UniProt Q9Y3I1); assay: co-IP
T1 sequence: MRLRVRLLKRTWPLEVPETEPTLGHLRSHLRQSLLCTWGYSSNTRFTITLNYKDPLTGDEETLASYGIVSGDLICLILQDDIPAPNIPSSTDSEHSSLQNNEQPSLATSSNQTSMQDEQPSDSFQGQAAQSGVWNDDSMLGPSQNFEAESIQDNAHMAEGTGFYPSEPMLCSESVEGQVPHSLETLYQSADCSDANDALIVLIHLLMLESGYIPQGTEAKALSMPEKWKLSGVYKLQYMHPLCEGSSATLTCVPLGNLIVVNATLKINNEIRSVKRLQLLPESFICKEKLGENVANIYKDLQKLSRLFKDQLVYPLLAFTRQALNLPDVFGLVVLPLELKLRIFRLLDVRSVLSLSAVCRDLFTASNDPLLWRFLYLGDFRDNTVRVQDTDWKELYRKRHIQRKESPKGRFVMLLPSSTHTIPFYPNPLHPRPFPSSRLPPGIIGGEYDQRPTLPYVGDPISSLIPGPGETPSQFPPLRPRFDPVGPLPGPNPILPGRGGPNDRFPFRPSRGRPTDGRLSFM

Fbxo7 R498X (human) = molecular target: T2, Fbxo7 R498X (human) (UniProt Q9Y3I1); assay: co-IP
T2 sequence: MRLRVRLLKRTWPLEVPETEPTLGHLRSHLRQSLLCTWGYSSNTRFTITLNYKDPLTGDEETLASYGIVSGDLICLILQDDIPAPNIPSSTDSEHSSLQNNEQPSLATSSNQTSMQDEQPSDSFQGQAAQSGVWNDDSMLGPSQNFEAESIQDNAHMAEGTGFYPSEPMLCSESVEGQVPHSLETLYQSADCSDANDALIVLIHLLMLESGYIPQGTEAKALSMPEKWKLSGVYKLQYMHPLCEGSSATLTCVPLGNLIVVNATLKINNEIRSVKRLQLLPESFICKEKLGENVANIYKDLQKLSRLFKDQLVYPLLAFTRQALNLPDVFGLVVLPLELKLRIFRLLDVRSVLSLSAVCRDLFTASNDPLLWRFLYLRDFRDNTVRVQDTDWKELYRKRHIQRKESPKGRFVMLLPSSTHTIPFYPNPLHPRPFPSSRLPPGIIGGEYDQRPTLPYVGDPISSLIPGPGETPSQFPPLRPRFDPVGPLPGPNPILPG

B1: MiD49-Myc (protein, UniProt Q96C03 1-454)
chain: MAEFSQKRGKRRSDEGLGSMVDFLLANARLVLGVGGAAVLGIATLAVKRFIDRATSPRDEDDTKADSWKELSLLKATPHLQPRPPPAALSQPVLPLAPSSSAPEGPAETDPEVTPQLSSPAPLCLTLQERLLAFERDRVTIPAAQVALAKQLAGDIALELQAYFRSKFPELPFGAFVPGGPLYDGLQAGAADHVRLLVPLVLEPGLWSLVPGVDTVARDPRCWAVRRTQLEFCPRGSSPWDRFLVGGYLSSRVLLELLRKALAASVNWPAIGSLLGCLIRPSMASEELLLEVQHERLELTVAVLVAVPGVDADDRLLLAWPLEGLAGNLWLQDLYPVEAARLRALDDHDAGTRRRLLLLLCAVCRGCSALGQLGRGHLTQVVLRLGEDNVDWTEEALGERFLQALELLIGSLEQASLPCHFNPSVNLFSSLREEEIDDIGYALYSGLQEPEGLL
binding (Fbxo7 R378G (human)): binds | binding (Fbxo7 R498X (human)): binds
